# Source: the supplement of paper PMC9938546
# Structures can show the parent of a compound that is named as a salt. The list shows a part of the results. Plates or batches differ in their baseline, so values are only roughly comparable.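 HCT116-GFP is a human colorectal cancer cell line that carries a KRAS mutation, is microsatellite-unstable and always makes green fluorescent protein; the immune cells came from healthy donors. Live-cell imaging of the green signal stood in for cancer cell survival, and activated immune cells alone cut survival to about half.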
# System: HCT116-GFP
# Experiment: HCT116-GFP viability (GFP intensity) relative to untreated HCT116-GFP monoculture control, co-culture with activated PBMCs; higher = less cancer cell killing
# Conditions: culture: co-culture with anti-CD3/IL2 activated PBMCs 1:1; 10 µM; 72 h
row,SMILES,HCT116-GFP viability [%]
1,Nc1nc2c(ncn2COC(CO)CO)c(=O)[nH]1 [Ganciclovir],62.7
2,CN(C)C(=N)NC(=N)N [Metformin hydrochloride],34.1
3,NCCCCCC(=O)O [Aminocaproic acid],71.8
4,CNCCc1ccccn1 [Betahistine mesylate],36.1
5,CC=CC(=O)N(CC)c1ccccc1C [Crotamiton],73.9
6,O=C(c1ccc(F)cc1)C1CCN(CCn2c(=O)[nH]c3ccccc3c2=O)CC1 [Ketanserin tartrate hydrate],38.1
7,CCN(CC)C(=O)c1ccc(O)c(OC)c1 [Ethamivan],47.1
8,Cc1[nH]cnc1CN1CCc2c(c3ccccc3n2C)C1=O [Alosetron hydrochloride],5.36
9,CCCOc1ccc2[nH]c(NC(=O)OC)nc2c1 [Oxibendazol],1.93
10,CN(CCCN1c2ccccc2CCc2ccccc21)CC(=O)c1ccc(Cl)cc1 [Lofepramine],45.8
11,CN(C)CCOC(c1ccccc1)c1ccccc1.Cn1c(=O)c2[nH]c(Cl)nc2n(C)c1=O [Dimenhydrinate],37.8
12,O=C1NCC2(CCN(CCc3ccccc3)CC2)O1 [Fenspiride hydrochloride],54.9
13,Clc1ccc2c(c1)CCc1cccnc1C2=C1CCNCC1 [Desloratadine],21.2
14,COc1ccc(CC2c3cc(OC)c(OC)cc3CC[N+]2(C)CCC(=O)OCCCCCOC(=O)CC[N+]2(C)CCc3cc(OC)c(OC)cc3C2Cc2ccc(OC)c(OC)c2)cc1OC (stereo not given) [Atracurium besylate],38.2
15,CC(=O)[C@H]1CC[C@H]2[C@@H]3CC=C4C[C@@H](O)CC[C@]4(C)[C@H]3CC[C@]12C [Pregnenolone],33.4
16,CCN(CCO)CCCC(C)Nc1ccnc2cc(Cl)ccc12 (stereo not given) [Hydroxychloroquine sulfate],67.6
17,CCCCN1CCCCC1C(=O)Nc1c(C)cccc1C (stereo not given) [Bupivacaine hydrochloride],35.9
18,CCOC(=O)NNc1nncc2ccccc12 [Todralazine hydrochloride],57.6
19,CC(C)(C)c1ccc(C(O)CCCN2CCC(C(O)(c3ccccc3)c3ccccc3)CC2)cc1 (stereo not given) [Terfenadine],0.925
20,CC(COc1ccccc1)NC(C)C(O)c1ccc(O)cc1 (stereo not given) [Isoxsuprine hydrochloride],59.2
21,Nc1ccc(S(=O)(=O)Nc2ccccn2)cc1 [Sulfapyridine],77.5
22,COc1ccnc(C[S+]([O-])c2nc3cc(OC(F)F)ccc3[nH]2)c1OC (stereo not given) [Pantoprazole sodium],52
23,Nc1ccn([C@@H]2O[C@H](CO)[C@@H](O)[C@@H]2O)c(=O)n1 [Cytarabine],6.54
24,C[C@@H]1C[C@H]2[C@@H]3C[C@H](F)C4=CC(=O)C=C[C@]4(C)[C@@]3(F)[C@@H](O)C[C@]2(C)[C@@]1(O)C(=O)COC(=O)C(C)(C)C [Flumethasone pivalate],44.3
25,CCOc1ccccc1OC(c1ccccc1)C1CNCCO1 (stereo not given) [Reboxetine mesylate],59.6

# For convenience, part of the list above.
row,SMILES,HCT116-GFP viability [%]
7,CCN(CC)C(=O)c1ccc(O)c(OC)c1 [Ethamivan],47.1
8,Cc1[nH]cnc1CN1CCc2c(c3ccccc3n2C)C1=O [Alosetron hydrochloride],5.36
9,CCCOc1ccc2[nH]c(NC(=O)OC)nc2c1 [Oxibendazol],1.93
10,CN(CCCN1c2ccccc2CCc2ccccc21)CC(=O)c1ccc(Cl)cc1 [Lofepramine],45.8
11,CN(C)CCOC(c1ccccc1)c1ccccc1.Cn1c(=O)c2[nH]c(Cl)nc2n(C)c1=O [Dimenhydrinate],37.8
12,O=C1NCC2(CCN(CCc3ccccc3)CC2)O1 [Fenspiride hydrochloride],54.9
13,Clc1ccc2c(c1)CCc1cccnc1C2=C1CCNCC1 [Desloratadine],21.2
14,COc1ccc(CC2c3cc(OC)c(OC)cc3CC[N+]2(C)CCC(=O)OCCCCCOC(=O)CC[N+]2(C)CCc3cc(OC)c(OC)cc3C2Cc2ccc(OC)c(OC)c2)cc1OC (stereo not given) [Atracurium besylate],38.2
15,CC(=O)[C@H]1CC[C@H]2[C@@H]3CC=C4C[C@@H](O)CC[C@]4(C)[C@H]3CC[C@]12C [Pregnenolone],33.4
16,CCN(CCO)CCCC(C)Nc1ccnc2cc(Cl)ccc12 (stereo not given) [Hydroxychloroquine sulfate],67.6
17,CCCCN1CCCCC1C(=O)Nc1c(C)cccc1C (stereo not given) [Bupivacaine hydrochloride],35.9
18,CCOC(=O)NNc1nncc2ccccc12 [Todralazine hydrochloride],57.6

# Later entries.

row,SMILES,HCT116-GFP viability [%]
1,CN(C)CCCN1c2ccccc2Sc2ccc(Cl)cc21 [Chlorpromazine hydrochloride],9.43
2,CN(C)c1ccc(O)c2c1C[C@H]1C[C@H]3[C@H](N(C)C)C(O)=C(C(N)=O)C(=O)[C@@]3(O)C(O)=C1C2=O [Minocycline hydrochloride],48.1
3,Cc1ccsc1/C=C/C1=NCCCN1C [Morantel tartrate],42.2
4,Nc1nc(NC2CC2)c2ncn([C@H]3C=C[C@@H](CO)C3)c2n1 [Abacavir Sulfate],60.3
5,O=C(COc1ccc(Cl)cc1)N1CCN(Cc2ccc3c(c2)OCO3)CC1 [Fipexide hydrochloride],40.2
6,CNC(C)CCC=C(C)C (stereo not given) [Isometheptene mucate],29.7
7,CN(Cc1cnc2nc(N)nc(N)c2n1)c1ccc(C(=O)N[C@@H](CCC(=O)O)C(=O)O)cc1 [Methotrexate],12.2
8,"CN(Cc1cnc2nc(N)nc(N)c2n1)c1ccc(C(=O)N[C@@H](CCC(=O)O)C(=O)O)cc1 (racemic) [Amethopterin (R,S)]",20.2
9,CCN(CC)CCNc1ccc(CO)c2sc3ccccc3c(=O)c12 [Hycanthone],17.5
10,OC(CCCN1CCCCC1)(c1ccccc1)c1ccccc1 [Diphenidol hydrochloride],44.8
11,CCN(CC)CCOC(=O)C(c1ccccc1)c1ccccc1 [Adiphenine hydrochloride],64.5
12,CCOC(=O)c1ccc(N)cc1 [Benzocaine],74.8
13,C[C@]12CC[C@@H]3c4ccc(OS(=O)(=O)O)cc4CC[C@H]3[C@@H]1CCC2=O [Estropipate],64.1
14,COc1cccc(OC)c1C(=O)N[C@@H]1C(=O)N2[C@@H]1SC(C)(C)[C@@H]2C(=O)O [Methicillin sodium],45.5
15,Cc1ccc(S(=O)(=O)NC(=O)NN2CCCCCC2)cc1 [Tolazamide],50
16,CCCCC1(COC(=O)CCC(=O)O)C(=O)N(c2ccccc2)N(c2ccccc2)C1=O [Suxibuzone],66.4
17,COc1cc(NC(C)CCCN)c2ncccc2c1 (stereo not given) [Primaquine diphosphate],2.39
18,CCCCNc1c(C(=O)OCC)c(C)nc2c1cnn2CC [Tracazolate hydrochloride],56.7
19,COc1cc(-c2ccc(=O)[nH]n2)ccc1OC(F)F [Zardaverine],58.1
20,CSc1ccc2c(c1)N(CCC1CCCCN1C)c1ccccc1S2 (stereo not given) [Thioridazine hydrochloride],38.4
21,CC1=C(/C=C/C(C)=C/C=C/C(C)=C\C(=O)O)C(C)(C)CCC1 [Isotretinoin],51.4
22,CC/C(=C(/CC)c1ccc(O)cc1)c1ccc(O)cc1 [Diethylstilbestrol],55.9
23,Cc1cc(-c2ccccc2)nnc1NCCN1CCOCC1 [Minaprine dihydrochloride],39.3
24,NC(N)=Nc1nc(CSCC/C(N)=N/S(N)(=O)=O)cs1 [Famotidine],39.1
25,CN(C)[C@@H]1C(O)=C(C(N)=O)C(=O)[C@@]2(O)C(O)=C3C(=O)c4c(O)cccc4[C@@](C)(O)[C@H]3[C@H](O)[C@@H]12 [Oxytetracycline dihydrate],38.7
